Measured values: PubChem BioAssay AID1487 (National Center for Advancing Translational Sciences (NCATS), 2009)
“And” between values parts separate entries of the source, which are not always exact repeats. Identical values can stand only once. The list shows a part of the results. Further columns of the screen follow, without active or inactive calls. Most of these compounds were active or inconclusive in the main read-out, so they are no random draw. The note in brackets gives the kind of curve behind each potency; many fits are weak.

Experiment: qHTS Assay for Modulators of Lamin A Splicing
Conditions: HeLa LMNA splicing GFP/RFP minigene ratio, 48 h
In short: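 S3 HeLa cells stably expressing lamin A-EGFP splicing minigene plus DsRed2, 600 cells/well, 48 h compound exposure at 37C. Laser-scanning cytometry; analysed as GFP (500-530 nm)/RFP (575-640 nm) total intensity ratio; 0.5% DMSO vehicle.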

[1] = measured here: RFP viability control channel
[2] = measured here: GFP splicing reporter channel

SMILES | AC50 [1] | AC50 [2]
Cc1nc2cc(NC(=O)COc3ccc(C#N)cc3)ccc2n1-c1ccccc1 | 14.1 µM [rising, partial curve] | –
COc1ccccc1N1CCN(S(=O)(=O)c2ccc3nc(-c4ccccc4)[nH]c3c2)CC1 | 22.4 µM [rising, partial curve] | 12.6 µM [rising, single point]
CC1(C)CC(=O)C2=C(C1)c1c(ccc3ccccc13)NC2c1ccc(Br)o1 (configuration not stated) | 12.6 µM [rising, single point] | 12.6 µM [rising, single point]
O=S(=O)(NCCC1=CCCCC1)c1cccc2nsnc12 | 10 µM [rising, partial curve, poor fit] | 7.08 µM [rising, full curve, poor fit]
Cc1ccc(S(=O)(=O)N(C)C)cc1NC(=O)COC(=O)/C=C/c1cnc2ccccc2n1 | 0.316 µM [rising, single point] | –
CCN(CC)S(=O)(=O)c1ccc(NS(=O)(=O)c2ccc(C)c(C)c2)cc1 | 31.6 µM [rising, single point] | –
Cc1ccc(-c2csc(NC(=O)CSc3nc4ccccc4c(=O)n3CCCN(C)C)n2)cc1 | 22.4 µM [rising, single point] | 35.5 µM [rising, single point]
Cc1ccc(C(=O)Nc2ccccc2C(=O)NC(C(=O)O)C(C)C)cc1 (configuration not stated) | 0.0708 µM [falling, full curve, poor fit] | –
COc1ccc2nc(/C(C#N)=C\c3ccc(Oc4ccc([N+](=O)[O-])cn4)cc3)[nH]c2c1 | – | 1.41 µM [rising, full curve, poor fit]
CCc1c(C)sc2c1CCN(C(=O)Nc1ccc(F)c(Cl)c1)C2c1ccc(F)cc1 (configuration not stated) | 1.58 µM [rising, partial curve] | –
CCCCCSc1nnc(-c2cc(Br)ccc2N)c(=O)[nH]1 | 17.8 µM [rising, single point] | 15.8 µM [rising, partial curve]
COc1ccc(-c2cn3nc(SCC(=O)Nc4ccc(C)c(Cl)c4)ccc3n2)cc1 | 0.1 µM [rising, partial curve] | 0.355 µM [rising, full curve, poor fit]
COc1cc(SC)ccc1C(=O)NCCOc1ccc(C)c(C)c1 | 25.1 µM [rising, single point] | –
Cc1ccccc1C(=O)OCCN(C)Cc1ccccc1 | – | 0.447 µM [rising, full curve, poor fit]
Cc1ccc(NC(=O)c2ccccc2NS(=O)(=O)c2ccc(Cl)s2)cc1 | 20 µM [rising, single point] | –
COCCNC(=O)c1c[nH]c2ccc(OC)cc2c1=O | 12.6 µM [rising, single point] | –
CCn1c(SCC(=O)c2ccccc2)nc2ccccc2c1=O | 1.58 µM [falling, partial curve, poor fit] | 0.158 µM [falling, full curve, poor fit]
O=C(Cn1c(=O)sc2ccccc21)Nc1ccc(S(=O)(=O)N2CCCCC2)cc1 | 11.2 µM [rising, single point] | –
COC(=O)c1oc2ccc(Br)cc2c1-n1cccc1 | – | 35.5 µM [rising, single point]
Cc1[nH]c2ccccc2c1C(=O)COC(=O)c1c(-c2ccccc2Cl)noc1C | 25.1 µM [rising, single point] | –
COc1ccc(N2CCN(C(=O)c3cccc(NC(=O)c4nsc5ccccc45)c3)CC2)cc1 | 7.08 µM [falling, full curve] | 8.91 µM [falling, partial curve, poor fit]
O=C(Nc1ccc2nc(SCC(=O)N3CCCc4ccccc43)sc2c1)c1ccccc1 | – | 5.01 µM [falling, partial curve]
CC(C)c1ccccc1NC(=O)COc1ccc2c(=O)c(Oc3ccc4ccccc4c3)coc2c1 | 14.1 µM [rising, partial curve] | 8.91 µM [rising, partial curve]
CCOc1ccc(S(=O)(=O)Nc2cc(OC)ccc2OC)cc1 | 5.62 µM [rising, partial curve, poor fit] | –
O=C(CN1CCN(c2cccc(Cl)c2)CC1)Nc1ccc([N+](=O)[O-])cc1C(=O)Nc1ccccc1F | 4.47 µM [rising, single point] | –
COc1ccccc1N1CCN(CCCCNS(=O)(=O)c2cccc3c(N(C)C)cccc23)CC1 | 11.2 µM [falling, partial curve, poor fit] | 12.6 µM [falling, partial curve, poor fit]

SMILES | AC50 [1] | AC50 [2]
Cc1cc(CC(=O)O)n(C)c1C(=O)c1ccc(Cl)cc1 | 0.0891 µM [falling, full curve, poor fit] | 0.0794 µM [falling, full curve, poor fit]
NCCNC(=O)c1ncsc1-c1cccc(F)c1 | 0.00631 µM [falling, full curve, poor fit] | 0.00562 µM [falling, full curve, poor fit]
O=C(COCc1cc(-c2ccc3c(c2)OCO3)on1)N1CCN(c2ccccc2)CC1 | 15.8 µM [rising, partial curve] | 28.2 µM [rising, single point]
COc1cc(CC(=O)N2CCc3ccccc32)cc(OC)c1OC | 35.5 µM [rising, single point] | 35.5 µM [rising, single point]
CCC(CC)C(=O)Nc1nc2c(s1)CC(C)CC2 (configuration not stated) | – | 1.26 µM [rising, full curve, poor fit]
N#C/C(=C/c1cn(-c2ccccc2)nc1-c1cccc(OCc2ccc(F)cc2)c1)C(=O)NCCCn1ccnc1 | 35.5 µM [falling, single point] | 35.5 µM [falling, single point]
COc1cccc(C2=CC(c3cccs3)n3nnnc3N2)c1 (configuration not stated) | 4.47 µM [rising, full curve] | –
O=C(O)C1=CCCNC1 | 0.000794 µM [falling, full curve, poor fit] | –
Nc1nc(N)c2cc(Sc3ccc4ccccc4c3)ccc2n1 | 35.5 µM [falling, partial curve, poor fit] | 15.8 µM [falling, partial curve]
Cc1cc2ccccn2c1C(C[N+](=O)[O-])c1ccc(N(C)C)cc1 (configuration not stated) | – | 0.00447 µM [rising, full curve, poor fit]
O=C(Nc1cccnc1)c1cccc(S(=O)(=O)N2CCCCC2)c1 | 0.0447 µM [rising, partial curve] | 0.112 µM [rising, partial curve]
CC1CCN(CCC(=O)N2CCCc3c2c(=O)oc2ccc(O)cc32)CC1 | 35.5 µM [rising, single point] | –
O=C(Nc1ccc2c(c1)OCO2)N1CCN(c2ncc(C(F)(F)F)cc2Cl)CC1 | 17.8 µM [rising, single point] | –
CN(C)S(=O)(=O)Oc1ccc(C(=O)Nc2ccc([N+](=O)[O-])cc2)cc1 | 7.08 µM [falling, partial curve, poor fit] | 3.16 µM [falling, partial curve]
Fc1ccc(-c2noc3ncnc(NCC4CCN(Cc5ccc(Cl)cc5)CC4)c23)cc1 | 0.00316 µM [rising, full curve, poor fit] | –
CSc1ccc(-c2nc(CSCC(=O)N3CCOCC3)c(C)o2)cc1 | 3.98 µM [rising, full curve] | 0.0794 µM [rising, partial curve]
Cn1c(=O)c2c(nc(Br)n2CCCc2ccccc2)n(C)c1=O | 17.8 µM [rising, partial curve] | 3.16 µM [rising, partial curve]
CC1=C(C(=O)OCC(C)C)C(c2ccc(F)cc2)NC(=O)N1 (configuration not stated) | – | 14.1 µM [rising, partial curve, poor fit]
COc1cc(OC)cc(-c2nnc(SCC(=O)N(Cc3ccccc3)C(C)(C)C)o2)c1 | 22.4 µM [rising, single point] | 11.2 µM [rising, partial curve]
CCN1CCN(S(=O)(=O)c2cc(OCC(=O)NC3CCCCC3)c(C)cc2Cl)CC1 | 4.47 µM [rising, full curve] | 5.62 µM [rising, partial curve]
OCCn1c(SCCOc2ccccc2F)nc2ccccc21 | 5.62 µM [falling, single point] | 4.47 µM [falling, single point]
Cc1cc2nc3c(=O)[nH]c(=O)nc-3n(CC(O)C(O)C(O)CO)c2cc1C (configuration not stated) | 2 µM [rising, partial curve, poor fit] | 501 nM [falling, full curve, poor fit] and 2.24 µM [rising, partial curve, poor fit]
O=C(CN1CCN(c2nc(-c3ccc(F)cc3)cs2)CC1)Nc1ccc2c(c1)OCO2 | 22.4 µM [rising, partial curve] | –
Cc1cc(C)c2nc(N3CCC(C(=O)N4CCCC4)CC3)sc2c1 | 35.5 µM [rising, single point] | 17.8 µM [rising, single point]
Cc1ccc(C(=O)Nc2ccc(S(=O)(=O)N3CCc4ccccc4C3)cc2)o1 | 35.5 µM [rising, single point] | –
Cc1onc(-c2ccccc2)c1C(=O)Nc1ccc2c(C)cc(=O)oc2c1 | 15.8 µM [rising, single point] | –
